PMC8143456 (Microorganisms, 2021)

Test: MTS cytotoxicity assay in Vero cells
Settings: African green monkey

## CCC(CC)COC(=O)[C@H](C)N[P@](=O)(OC[C@H]1O[C@@](C#N)(c2ccc3c(N)ncnn23)[C@H](O)[C@@H]1O)Oc1ccccc1 [Remdesivir, reference compound]
  CC50 at 4 days: > 100 µM
